In paper PMC7819943, “Rice protein-binding microarrays: a tool to detect cis-acting elements near promoter regions in rice”:
The list shows a part of the results.

By UniProt entry, the sequences of proteins in these tests, tags left out.
UniProt Q0JBA9, entry or part of it: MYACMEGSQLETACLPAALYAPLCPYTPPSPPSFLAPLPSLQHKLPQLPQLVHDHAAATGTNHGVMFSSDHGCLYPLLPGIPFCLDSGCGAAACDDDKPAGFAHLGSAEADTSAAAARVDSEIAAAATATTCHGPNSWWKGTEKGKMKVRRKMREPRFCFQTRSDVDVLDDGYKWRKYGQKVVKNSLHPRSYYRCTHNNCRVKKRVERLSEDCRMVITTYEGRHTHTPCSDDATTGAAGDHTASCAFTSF

biological target: OsWRKY34 (Oryza sativa, UniProt Q0JBA9 1-250); assay: protein-binding microarray (RPBM); PBS, 2% BSA, 51.3 ng/ul salmon testes DNA, 50 uM zinc acetate, 200 nM TF, 25 C, 1 h; high values mean tight binding; conditions: protein: recombinant; tags: N-terminal polyhistidine and DsRed monomer fusion (pET32a); label: CyDye5-dUTP incorporated in the synthesized complementary strand; 3' TTTTT single-stranded linker to array surface; dsDNA, one strand shown
How it was run: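 Transcription factors were each fused at the N-terminus to a polyhistidine tag plus DsRed and expressed in E. coli BL21-CodonPlus before Ni–NTA purification. Binding to a double-stranded custom Agilent array was carried out with 200 nM protein at 25 °C for 1 h in PBS, 2% BSA, salmon testes DNA and 50 µM zinc acetate. The binding signal is per-feature fluorescence intensity, in arbitrary units, on an Axon 4000B scanner.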

| Sequence | binding signal |
| --- | --- |
| GTCTAGTATAAATCAACGCCACACCACTTGCCTAGTCATCCGGAGTCACCTAGTGCAG | 8070 fluorescence intensity (a.u.) |
| GGAGGGGCGGGGTGGCGCGGCGAGGCCGGCGACAAGGCCGCGGAGTCACCTAGTGCAG | 9130 fluorescence intensity (a.u.) |
| TAATGCTCCACCACGCCGCCACGCGCTCGATTTCACTCGCCGGAGTCACCTAGTGCAG | 9400 fluorescence intensity (a.u.) |
| TGACAAGTTTCATGTTTATATTTAGGATGCTACACACTTTCGGAGTCACCTAGTGCAG | 10800 fluorescence intensity (a.u.) |
| AACAGAAACATCCTCGTCAGCCGATCTGTTCACCAGTCTCCGGAGTCACCTAGTGCAG | 9480 fluorescence intensity (a.u.) |
| TACTACTCTTGTTTGTGTTTCCACACACTTCACCGGGTCTCGGAGTCACCTAGTGCAG | 8170 fluorescence intensity (a.u.) |
| CAACGTGATACTCTCCCACGCCACCGCCATCGAGATATACCGGAGTCACCTAGTGCAG | 8810 fluorescence intensity (a.u.) |
| GATTTTTGCATGTTTTACCTCTGTTTAAATTTGAACCAACCGGAGTCACCTAGTGCAG | 10000 fluorescence intensity (a.u.) |
| AGTTTGGTGGAAGGTTGCCAATGGTTTGTACTCTGATTATCGGAGTCACCTAGTGCAG | 8220 fluorescence intensity (a.u.) |
| TAACAGGGAAAAGAACAAGAGCCCATAATTTATTTCATTTCGGAGTCACCTAGTGCAG | 8050 fluorescence intensity (a.u.) |
| CTCCTCGCTTTCCATTCCATTCAACCATCTCAATCAATCTCGGAGTCACCTAGTGCAG | 9250 fluorescence intensity (a.u.) |
| CACTTGTTGTCTATTACATGTGGGTCCTCATGTGCCTATACGGAGTCACCTAGTGCAG | 8090 fluorescence intensity (a.u.) |
| GTGTGTTGGGTTCGGTTCGCTTGGCCGCCTCCGCCTCCGCCGGAGTCACCTAGTGCAG | 12400 fluorescence intensity (a.u.) |
| CACTATCGGCAGTGCAGCCGGCGGCTGGGGCGGGGAGTACCGGAGTCACCTAGTGCAG | 9540 fluorescence intensity (a.u.) |
| AGTACATGGGCTTTCCATAATTGGTTTATACGTGGTTATTCGGAGTCACCTAGTGCAG | 8260 fluorescence intensity (a.u.) |
| GCCGCACTATAAATTAGTCATGCACAGTTGCATCCATGGCCGGAGTCACCTAGTGCAG | 8120 fluorescence intensity (a.u.) |
| TTGATTTTTTTCCCAGTCAAACTCTATTAAATTTGACTAACGGAGTCACCTAGTGCAG | 9340 fluorescence intensity (a.u.) |
| ACCGCCGCATCCCGTCCATCCGGCCGGCCGGCGGCCGCCACGGAGTCACCTAGTGCAG | 9870 fluorescence intensity (a.u.) |
| GTGTTGTATACTATTGCATGATCTTTATAATTTCTTTGTTCGGAGTCACCTAGTGCAG | 12600 fluorescence intensity (a.u.) |
| CCCCATCTGATCTCACAAACATTATTTCTCTCTCTTTTTTCGGAGTCACCTAGTGCAG | 9020 fluorescence intensity (a.u.) |
| AGATTTGGCGCCTCTTTTCATCGCCATCTTTGACCGCGCACGGAGTCACCTAGTGCAG | 8800 fluorescence intensity (a.u.) |
| ATCTCTCCTCTCGCTCTCTAGGTGTTTATCACAAACACTCCGGAGTCACCTAGTGCAG | 8120 fluorescence intensity (a.u.) |
| CATGTTGTTCTGTTTGATGTTGCCCACTACGGTCTTTAGTCGGAGTCACCTAGTGCAG | 10900 fluorescence intensity (a.u.) |
| TGCTCTTGCTCTTCTGGTTTCATGAGACGCGTGTTGCCATCGGAGTCACCTAGTGCAG | 8400 fluorescence intensity (a.u.) |
| GATCTGTTCTTTGTTATGCTGCCATGTTCTACCTGAAGATCGGAGTCACCTAGTGCAG | 9250 fluorescence intensity (a.u.) |
| GGCGGCGGGTGGGAGGGGCGGCGATGGCTTCGGCAGCCGCCGGAGTCACCTAGTGCAG | 9000 fluorescence intensity (a.u.) |
| TTTAATTAATTATGTGTTAATAGTTTTGCATGTCTCGTATCGGAGTCACCTAGTGCAG | 8700 fluorescence intensity (a.u.) |

| Sequence | binding signal |
| --- | --- |
| TTTTCCTCCTTATCCGATGGGCCTTCCGTTTCTCAAGACACGGAGTCACCTAGTGCAG | 9130 fluorescence intensity (a.u.) |
| TCTCAGCAGGGGAGGGGAGGGGAGGGGATCCTGGTGAGGTCGGAGTCACCTAGTGCAG | 15700 fluorescence intensity (a.u.) |
| CTTTTTTTCCAACGTTTGACCATTTGTCTTATTCAAAAAACGGAGTCACCTAGTGCAG | 8560 fluorescence intensity (a.u.) |
| AAAATGTTGTTTTTTTCTTCACTTTTGTTTTCCTTTTTTTCGGAGTCACCTAGTGCAG | 9300 fluorescence intensity (a.u.) |
| CATGACAAGTGAATGCAGCGACCTTTTTGCCTTTGCTTTGCGGAGTCACCTAGTGCAG | 8420 fluorescence intensity (a.u.) |
| GACACAACTTTTTTTTAAAAAAAAAAACTCCAAGCAACATCGGAGTCACCTAGTGCAG | 8480 fluorescence intensity (a.u.) |
| ACAACAGCTTGCAACGCTTACTCTTTTTTATTCCTTCTATCGGAGTCACCTAGTGCAG | 8690 fluorescence intensity (a.u.) |
| TTTACTCACTCCCAAAATTTAAATTTCATATATCTGTATCCGGAGTCACCTAGTGCAG | 9120 fluorescence intensity (a.u.) |
| CAACTACCGACCTCACTTCCACGCCCACCGTCGTCGACTCCGGAGTCACCTAGTGCAG | 8160 fluorescence intensity (a.u.) |
| TTTGTGTCACTTTTAAACATGTTCACGTCATTATTTTAGTCGGAGTCACCTAGTGCAG | 9290 fluorescence intensity (a.u.) |
| GGTTGGGTTGGTCTGAATGAACCTTTGAGCTGCGTCGCAACGGAGTCACCTAGTGCAG | 11900 fluorescence intensity (a.u.) |
| CGCCATCCTCGCTGACCATCTTGTCCTTGCTGTCGCTGAGCGGAGTCACCTAGTGCAG | 9200 fluorescence intensity (a.u.) |
| TACTAGGCTCTACTACACCCATTTCTACCTCACACACCTACGGAGTCACCTAGTGCAG | 9410 fluorescence intensity (a.u.) |
| AGTTCATCATATCCAGTTGCATACTCGCTCCGTGTTTTAACGGAGTCACCTAGTGCAG | 10700 fluorescence intensity (a.u.) |
| CTTGTTTGGGCCTCTCGCGAGTTATCTATGTACCGCCGTACGGAGTCACCTAGTGCAG | 10100 fluorescence intensity (a.u.) |
| TTATCCTATTTGTACCATATATTTTATGATATATTTCCTACGGAGTCACCTAGTGCAG | 8180 fluorescence intensity (a.u.) |
| TCTCGTGTTTTTCCTATTCCTCCGTTTTTTCAATCCTACACGGAGTCACCTAGTGCAG | 10500 fluorescence intensity (a.u.) |
| GCTAGGGGAGGGAGAGGCGGCGGCGGCGGTGGTAGCCGGACGGAGTCACCTAGTGCAG | 9480 fluorescence intensity (a.u.) |
| GTTGTGAGTTTCTGCGTTGTACTGTGTAATTAAAAAAAAACGGAGTCACCTAGTGCAG | 8810 fluorescence intensity (a.u.) |
| GTTCATACCGCTCTCGTTCGTTCGCGGCTCCTTCCTGCTGCGGAGTCACCTAGTGCAG | 11300 fluorescence intensity (a.u.) |
| TCCATGCCATCTGCTGAACAGACCCATGCATCCTTCAACTCGGAGTCACCTAGTGCAG | 8920 fluorescence intensity (a.u.) |
| AATCGTTAAGTTTCATCCCATTTCAATCGTTAAGTTTCATCGGAGTCACCTAGTGCAG | 8700 fluorescence intensity (a.u.) |
| ACTACAGTCCCTCGCCATGCATGCGCCGTCAGATGTCCAACGGAGTCACCTAGTGCAG | 11500 fluorescence intensity (a.u.) |
| AGGCTAGGCGGTTATATGTCACTCTCATGCATATTAGTCACGGAGTCACCTAGTGCAG | 8870 fluorescence intensity (a.u.) |
| GGGCCTTAGTGGGTTCTCTTTGGGCCGGCCCCTGCATTTCCGGAGTCACCTAGTGCAG | 9190 fluorescence intensity (a.u.) |
| CCATGCTCGCCGGCGTATTCGGACACGGACAACAGCACCACGGAGTCACCTAGTGCAG | 10700 fluorescence intensity (a.u.) |
| ACCATACCACATCCTGCTACTCATAATCCATCTTGTTAAGCGGAGTCACCTAGTGCAG | 8290 fluorescence intensity (a.u.) |

As a working copy, some entries already given.

| Sequence | binding signal |
| --- | --- |
| AGTACATGGGCTTTCCATAATTGGTTTATACGTGGTTATTCGGAGTCACCTAGTGCAG | 8260 fluorescence intensity (a.u.) |
| GCCGCACTATAAATTAGTCATGCACAGTTGCATCCATGGCCGGAGTCACCTAGTGCAG | 8120 fluorescence intensity (a.u.) |
| TTGATTTTTTTCCCAGTCAAACTCTATTAAATTTGACTAACGGAGTCACCTAGTGCAG | 9340 fluorescence intensity (a.u.) |
| ACCGCCGCATCCCGTCCATCCGGCCGGCCGGCGGCCGCCACGGAGTCACCTAGTGCAG | 9870 fluorescence intensity (a.u.) |
| GTGTTGTATACTATTGCATGATCTTTATAATTTCTTTGTTCGGAGTCACCTAGTGCAG | 12600 fluorescence intensity (a.u.) |
